Test results published in the supplement of paper PMC8728848.
The list shows a part of the results.

Columns and labels:
Experiment in all cases: glycan array binding signal (z-score within array); higher = stronger binding
Conditions in all cases: glycan notation: IUPAC condensed, linker removed
[1] = molecular target: Gal(b1-4)GlcNAc(b1-2)Man(a1-6)[Man(a1-3)]Man(b1-4)GlcNAc(b1-4)GlcNAc
How it was run: (§1)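 Negative Z-scores can be read as non-binding. The Z-score is calculated within each array and then averaged across arrays of one protein sequence at different concentrations or buffers and across linkers. Arrays, 3228 in all, were curated from the Consortium for Functional Glycomics database and kept only where the protein sequence was available.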

[2] = molecular target: Gal(b1-4)GlcNAc(b1-2)[Gal(b1-4)GlcNAc(b1-4)]Man(a1-3)[Gal(b1-4)GlcNAc(b1-2)Man(a1-6)]Man(b1-4)GlcNAc(b1-4)GlcNAc
How it was run: as §1

[3] = molecular target: Gal(b1-4)GlcNAc(b1-2)[Gal(b1-4)GlcNAc(b1-4)]Man(a1-3)[Gal(b1-4)GlcNAc(b1-2)[Gal(b1-4)GlcNAc(b1-6)]Man(a1-6)]Man(b1-4)GlcNAc(b1-4)GlcNAc
How it was run: as §1

[4] = molecular target: Gal(b1-4)GlcNAc(b1-2)[Gal(b1-4)GlcNAc(b1-4)]Man(a1-3)[GlcNAc(b1-4)][Gal(b1-4)GlcNAc(b1-2)Man(a1-6)]Man(b1-4)GlcNAc(b1-4)GlcNAc
How it was run: as §1

[5] = molecular target: Gal(b1-4)GlcNAc(b1-2)[Gal(b1-4)GlcNAc(b1-4)]Man(a1-3)[GlcNAc(b1-4)][Gal(b1-4)GlcNAc(b1-2)[Gal(b1-4)GlcNAc(b1-6)]Man(a1-6)]Man(b1-4)GlcNAc(b1-4)GlcNAc
How it was run: as §1

[6] = molecular target: Gal(b1-4)GlcNAc(b1-2)[Gal(b1-4)GlcNAc(b1-6)]Man(a1-6)[Gal(b1-4)GlcNAc(b1-2)Man(a1-3)]Man(b1-4)GlcNAc(b1-4)GlcNAc
How it was run: as §1

[7] = molecular target: Gal(b1-4)GlcNAc(b1-2)[Gal(b1-4)GlcNAc(b1-6)]Man(a1-6)[Gal(b1-4)GlcNAc(b1-2)Man(a1-3)]Man(b1-4)GlcNAc(b1-4)[Fuc(a1-6)]GlcNAc
How it was run: as §1

[8] = molecular target: Gal(b1-4)GlcNAc(b1-2)[Gal(b1-4)GlcNAc(b1-6)]Man(a1-6)[GlcNAc(b1-4)][Gal(b1-4)GlcNAc(b1-2)Man(a1-3)]Man(b1-4)GlcNAc(b1-4)GlcNAc
How it was run: as §1

[9] = molecular target: Gal(b1-4)GlcNAc(b1-2)[Gal(b1-4)GlcNAc(b1-6)]Man(a1-6)[GlcNAc(b1-4)][Gal(b1-4)GlcNAc(b1-2)[Gal(b1-4)GlcNAc(b1-4)]Man(a1-3)]Man(b1-4)GlcNAc(b1-4)[Fuc(a1-6)]GlcNAc
How it was run: as §1

[10] = molecular target: Gal(b1-4)GlcNAc(b1-3)Gal(b1-3)GalNAc
How it was run: as §1

[11] = molecular target: Gal(b1-4)GlcNAc(b1-3)Gal(b1-3)GlcNAc
How it was run: as §1

[12] = molecular target: Gal(b1-4)GlcNAc(b1-3)Gal(b1-4)Glc
How it was run: as §1

[13] = molecular target: Gal(b1-4)GlcNAc(b1-3)Gal(b1-4)GlcNAc
How it was run: as §1

[14] = molecular target: Gal(b1-4)GlcNAc(b1-3)Gal(b1-4)GlcNAc(b1-2)Man(a1-3)[Gal(b1-4)GlcNAc(b1-3)Gal(b1-4)GlcNAc(b1-2)Man(a1-6)]Man(b1-4)GlcNAc(b1-4)GlcNAc
How it was run: as §1

[15] = molecular target: Gal(b1-4)GlcNAc(b1-3)Gal(b1-4)GlcNAc(b1-2)Man(a1-3)[Gal(b1-4)GlcNAc(b1-3)Gal(b1-4)GlcNAc(b1-2)Man(a1-6)]Man(b1-4)GlcNAc(b1-4)[Fuc(a1-6)]GlcNAc
How it was run: as §1

[16] = molecular target: Gal(b1-4)GlcNAc(b1-3)Gal(b1-4)GlcNAc(b1-2)[Gal(b1-4)GlcNAc(b1-3)Gal(b1-4)GlcNAc(b1-6)]Man(a1-6)[Gal(b1-4)GlcNAc(b1-3)Gal(b1-4)GlcNAc(b1-2)Man(a1-3)]Man(b1-4)GlcNAc(b1-4)GlcNAc
How it was run: as §1

[17] = molecular target: Gal(b1-4)GlcNAc(b1-3)Gal(b1-4)GlcNAc(b1-2)[Gal(b1-4)GlcNAc(b1-3)Gal(b1-4)GlcNAc(b1-6)]Man(a1-6)[Gal(b1-4)GlcNAc(b1-3)Gal(b1-4)GlcNAc(b1-2)Man(a1-3)]Man(b1-4)GlcNAc(b1-4)[Fuc(a1-6)]GlcNAc
How it was run: as §1

[18] = molecular target: Gal(b1-4)GlcNAc(b1-3)Gal(b1-4)GlcNAc(b1-3)Gal(b1-4)GlcNAc
How it was run: as §1

[19] = molecular target: Gal(b1-4)GlcNAc(b1-3)Gal(b1-4)GlcNAc(b1-3)Gal(b1-4)GlcNAc(b1-2)Man(a1-3)[Gal(b1-4)GlcNAc(b1-3)Gal(b1-4)GlcNAc(b1-3)Gal(b1-4)GlcNAc(b1-2)Man(a1-6)]Man(b1-4)GlcNAc(b1-4)GlcNAc
How it was run: as §1

[20] = molecular target: Gal(b1-4)GlcNAc(b1-3)Gal(b1-4)GlcNAc(b1-3)Gal(b1-4)GlcNAc(b1-2)Man(a1-3)[Gal(b1-4)GlcNAc(b1-3)Gal(b1-4)GlcNAc(b1-3)Gal(b1-4)GlcNAc(b1-2)Man(a1-6)]Man(b1-4)GlcNAc(b1-4)[Fuc(a1-6)]GlcNAc
How it was run: as §1

[21] = molecular target: Gal(b1-4)GlcNAc(b1-3)Gal(b1-4)GlcNAc(b1-3)Gal(b1-4)GlcNAc(b1-2)[Gal(b1-4)GlcNAc(b1-3)Gal(b1-4)GlcNAc(b1-3)Gal(b1-4)GlcNAc(b1-6)]Man(a1-6)[Gal(b1-4)GlcNAc(b1-3)Gal(b1-4)GlcNAc(b1-3)Gal(b1-4)GlcNAc(b1-2)Man(a1-3)]Man(b1-4)GlcNAc(b1-4)[Fuc(a1-6)]GlcNAc
How it was run: as §1

[22] = molecular target: Gal(b1-4)GlcNAc(b1-3)Gal(b1-4)GlcNAc(b1-3)Gal(b1-4)GlcNAc(b1-3)Gal(b1-4)GlcNAc(b1-2)Man(a1-3)[Gal(b1-4)GlcNAc(b1-3)Gal(b1-4)GlcNAc(b1-3)Gal(b1-4)GlcNAc(b1-3)Gal(b1-4)GlcNAc(b1-2)Man(a1-6)]Man(b1-4)GlcNAc(b1-4)GlcNAc
How it was run: as §1

B1: Sp8391B-bot-388-20-388 (Bacteroides ovatus) (protein)
chain: GCQNNDENEQHYDNKLFISASNFTKEILFKAGDTNVETGLSVAIAKPEEHDIKVTMSPAPELLSTYKLAYYDETAVLLSEEHYSMPETSTTIKSGSIVSPELPIEFINTGELDIKTTYVLPVTIKSVEGIGVLQSAKTYYYVFRGASLINVVCNISRNRAYPDFKNDSKFNNLTENTMEILFKANSFPNTLNTLMGIESNYLLRIGDATIPNNQLQVATSVNNCTSADLQLESGKWYHVAVAFNKGNVKVYINGVEKLSGSTGKSSVSLGAKHTNEEDGSRCFWVGYSYKDDRYFDGVVSEVRIWNRALTAEEIQATNHFYTIEPESEGLIAYWKFDEGSGTVAKDYSVSGYDLTIEKEPKWESVSLPQ
glycan array binding signal (z-score) [1]: -0.621 | glycan array binding signal (z-score) [2]: -0.277 | glycan array binding signal (z-score) [3]: -0.731 | glycan array binding signal (z-score) [4]: -0.27 | glycan array binding signal (z-score) [5]: 0.322 | glycan array binding signal (z-score) [6]: 2.39 | glycan array binding signal (z-score) [7]: 0.014 | glycan array binding signal (z-score) [8]: -0.41 | glycan array binding signal (z-score) [9]: -0.323 | glycan array binding signal (z-score) [10]: -0.068 | glycan array binding signal (z-score) [11]: -0.556 | glycan array binding signal (z-score) [12]: -0.506 | glycan array binding signal (z-score) [13]: -0.406 | glycan array binding signal (z-score) [14]: 1.45 | glycan array binding signal (z-score) [15]: 0.652 | glycan array binding signal (z-score) [16]: -0.936 | glycan array binding signal (z-score) [17]: 0.479 | glycan array binding signal (z-score) [18]: -0.686 | glycan array binding signal (z-score) [19]: 2.45 | glycan array binding signal (z-score) [20]: -0.039 | glycan array binding signal (z-score) [21]: 0.655 | glycan array binding signal (z-score) [22]: 2.49
